From US20050260153
A weaker result is weaker than the reference pair of the same experiment.

Tested on: VEGF165
Assay: competition with a labelled probe
Details: 2'-F on C and U, 2'-OMe on G and A except unmodified ribo A at positions 4 and 5; 5'-5' dT cap and 3'-3' dT cap; inhibition of VEGF165/Flt-1 binding much less effective than PEGylated aptamer (lower steric effect); PBS, 1 mM Ca, 1 mM Mg, 37 C; purified recombinant protein; protein details: 125I-labelled

## CGGAAUCAGUGAAUGCUUAUACAUCCG [EYE002 (MacII; 5'-5' capped non-PEGylated VEGF aptamer)]
  binding result: binds more weakly
